No constants are given. Whether binding was seen depends on the method and setting. Binding seen in cells or lysates may run through a third protein. Some results given as binding are weak or reduced against the parent protein; the word gives no strength. Sequences can lack the tags named with a protein.
Tests used:
[1] = molecular target: T1, Pop2 (V5-tagged, pop2^V5) (fission yeast) (UniProt O14170); experiment: co-IP; whole cell extracts (LiNi method, EBL buffer) of fission yeast strains; immunoprecipitation of V5-tagged Pop1 or Pop2 with rabbit anti-V5 on anti-rabbit IgG magnetic beads, Rev1 forms detected by anti-flag blot; untagged strain or rabbit normal IgG as negative control; asynchronous and cdc25-synchronized cultures
T1 sequence: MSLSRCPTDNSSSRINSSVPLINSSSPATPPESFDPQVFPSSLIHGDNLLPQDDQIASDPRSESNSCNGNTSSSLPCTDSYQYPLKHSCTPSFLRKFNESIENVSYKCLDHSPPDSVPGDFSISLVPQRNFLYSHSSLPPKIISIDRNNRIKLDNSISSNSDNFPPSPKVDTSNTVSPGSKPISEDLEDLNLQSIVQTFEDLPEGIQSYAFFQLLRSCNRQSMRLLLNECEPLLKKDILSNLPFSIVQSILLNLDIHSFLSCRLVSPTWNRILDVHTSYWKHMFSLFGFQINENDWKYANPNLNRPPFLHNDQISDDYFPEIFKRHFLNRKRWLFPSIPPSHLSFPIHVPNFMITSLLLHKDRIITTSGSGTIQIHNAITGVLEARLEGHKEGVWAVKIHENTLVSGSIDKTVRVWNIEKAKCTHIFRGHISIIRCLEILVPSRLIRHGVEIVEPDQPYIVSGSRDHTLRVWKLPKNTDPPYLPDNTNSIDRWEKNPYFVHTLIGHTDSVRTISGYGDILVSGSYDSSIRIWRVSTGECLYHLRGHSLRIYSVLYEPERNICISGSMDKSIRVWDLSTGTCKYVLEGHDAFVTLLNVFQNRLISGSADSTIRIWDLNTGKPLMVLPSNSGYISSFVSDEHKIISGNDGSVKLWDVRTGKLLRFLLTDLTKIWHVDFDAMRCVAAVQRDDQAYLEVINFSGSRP

[2] = molecular target: T2, Pop1 (V5-tagged, pop1^V5) (fission yeast) (UniProt P87060); experiment: as above
T2 sequence: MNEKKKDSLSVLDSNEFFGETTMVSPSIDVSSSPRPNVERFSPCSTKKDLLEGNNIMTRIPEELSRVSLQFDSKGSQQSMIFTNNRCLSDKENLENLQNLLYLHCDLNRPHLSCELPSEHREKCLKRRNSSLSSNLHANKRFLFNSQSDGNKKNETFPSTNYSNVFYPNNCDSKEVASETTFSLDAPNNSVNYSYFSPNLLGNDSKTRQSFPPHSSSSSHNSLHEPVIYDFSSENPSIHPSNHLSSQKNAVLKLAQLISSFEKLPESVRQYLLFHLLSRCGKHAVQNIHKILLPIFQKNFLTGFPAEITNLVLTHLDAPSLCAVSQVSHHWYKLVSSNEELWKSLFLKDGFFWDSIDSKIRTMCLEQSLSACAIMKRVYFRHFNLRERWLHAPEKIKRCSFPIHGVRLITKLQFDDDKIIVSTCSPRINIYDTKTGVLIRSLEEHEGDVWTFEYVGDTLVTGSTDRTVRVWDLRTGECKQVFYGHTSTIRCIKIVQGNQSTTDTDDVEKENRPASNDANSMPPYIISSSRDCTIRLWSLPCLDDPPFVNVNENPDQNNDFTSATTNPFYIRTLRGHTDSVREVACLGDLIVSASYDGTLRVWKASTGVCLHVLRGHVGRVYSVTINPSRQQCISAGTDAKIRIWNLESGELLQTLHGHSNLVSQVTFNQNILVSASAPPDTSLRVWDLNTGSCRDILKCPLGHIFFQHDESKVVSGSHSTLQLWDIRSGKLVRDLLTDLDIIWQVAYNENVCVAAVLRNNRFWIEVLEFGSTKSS

[3] = molecular target: T3, Eso1 (V5-tagged, eso1^V5) (fission yeast) (UniProt O42917); experiment: co-IP; whole cell extracts of cdc10 rev1^flag eso1^V5 cells arrested at 36°C for 3 h (G1); immunoprecipitation with anti-flag or anti-V5 antibodies, western blot
T3 sequence: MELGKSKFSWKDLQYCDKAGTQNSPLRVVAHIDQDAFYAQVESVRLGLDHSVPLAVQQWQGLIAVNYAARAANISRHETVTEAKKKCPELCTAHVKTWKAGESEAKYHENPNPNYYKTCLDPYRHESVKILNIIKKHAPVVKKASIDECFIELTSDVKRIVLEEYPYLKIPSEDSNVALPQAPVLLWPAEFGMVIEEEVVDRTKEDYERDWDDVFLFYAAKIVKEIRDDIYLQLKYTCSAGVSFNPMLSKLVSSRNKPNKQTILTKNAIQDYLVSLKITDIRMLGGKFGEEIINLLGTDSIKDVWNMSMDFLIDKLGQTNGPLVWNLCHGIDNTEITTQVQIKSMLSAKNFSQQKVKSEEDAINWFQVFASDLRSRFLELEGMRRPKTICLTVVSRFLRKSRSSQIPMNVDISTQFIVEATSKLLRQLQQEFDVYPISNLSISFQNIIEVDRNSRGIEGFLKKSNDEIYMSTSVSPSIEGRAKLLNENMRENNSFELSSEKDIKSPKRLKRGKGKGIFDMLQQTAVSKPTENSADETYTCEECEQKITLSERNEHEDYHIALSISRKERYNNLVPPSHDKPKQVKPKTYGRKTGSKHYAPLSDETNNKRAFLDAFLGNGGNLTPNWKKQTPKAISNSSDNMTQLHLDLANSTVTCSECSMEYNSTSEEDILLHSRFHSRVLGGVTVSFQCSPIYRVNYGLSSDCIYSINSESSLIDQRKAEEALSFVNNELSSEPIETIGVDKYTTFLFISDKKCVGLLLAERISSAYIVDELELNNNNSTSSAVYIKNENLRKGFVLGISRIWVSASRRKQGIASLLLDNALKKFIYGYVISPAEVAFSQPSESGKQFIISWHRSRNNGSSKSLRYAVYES

[4] = molecular target: T4, Rev1 (flag-tagged, rev1^flag) (fission yeast) (UniProt O94623); experiment: as above
T4 sequence: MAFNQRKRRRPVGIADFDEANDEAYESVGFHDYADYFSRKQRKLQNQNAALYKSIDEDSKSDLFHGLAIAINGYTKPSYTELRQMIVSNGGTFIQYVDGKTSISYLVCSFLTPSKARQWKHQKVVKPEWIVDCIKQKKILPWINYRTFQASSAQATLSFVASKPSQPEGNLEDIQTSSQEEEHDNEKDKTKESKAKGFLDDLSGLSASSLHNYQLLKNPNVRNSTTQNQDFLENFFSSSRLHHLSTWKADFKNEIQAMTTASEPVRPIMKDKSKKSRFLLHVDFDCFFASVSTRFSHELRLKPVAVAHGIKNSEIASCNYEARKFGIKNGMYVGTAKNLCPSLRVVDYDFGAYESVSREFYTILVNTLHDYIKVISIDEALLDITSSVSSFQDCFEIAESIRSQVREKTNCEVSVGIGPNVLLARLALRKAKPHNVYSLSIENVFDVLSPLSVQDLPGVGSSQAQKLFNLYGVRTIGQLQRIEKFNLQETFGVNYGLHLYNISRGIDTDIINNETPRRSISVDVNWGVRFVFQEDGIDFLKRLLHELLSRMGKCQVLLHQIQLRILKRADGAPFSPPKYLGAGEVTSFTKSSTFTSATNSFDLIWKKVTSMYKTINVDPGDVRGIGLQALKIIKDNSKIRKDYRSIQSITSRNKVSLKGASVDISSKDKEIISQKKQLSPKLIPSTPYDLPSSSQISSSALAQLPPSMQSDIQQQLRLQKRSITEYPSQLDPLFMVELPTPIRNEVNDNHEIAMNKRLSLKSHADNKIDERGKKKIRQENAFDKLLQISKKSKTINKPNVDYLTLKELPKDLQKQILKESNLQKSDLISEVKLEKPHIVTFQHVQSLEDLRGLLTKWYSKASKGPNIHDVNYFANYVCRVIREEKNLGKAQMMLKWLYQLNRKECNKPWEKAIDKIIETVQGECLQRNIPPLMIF

[5] = molecular target: T4, Rev1 (flag-tagged, rev1^flag) (fission yeast); experiment: co-IP; immunoprecipitation assay from fission yeast extracts; bait, tags and antibodies shown only in S2 Fig and S5 Fig

B1: Rev1 (flag-tagged, rev1^flag) (protein, UniProt O94623 1-935)
chain: T4 sequence
binding [1]: binds
binding [2]: binds
binding [3]: binds

B2: Rev1KK (amino acids 761–818 of Rev1), flag-tagged (domain or fragment, UniProt O94623 761-818)
chain: KSHADNKIDERGKKKIRQENAFDKLLQISKKSKTINKPNVDYLTLKELPKDLQKQILK
binding [2]: binds

B3: Eso1 (V5-tagged, eso1^V5) (protein, UniProt O42917 1-872)
chain: T3 sequence
binding [4]: binds

B4: Rev7 (as used in the immunoprecipitation with Rev1 and Rev1dK, S2 Fig) (protein, UniProt Q0E7J8 1-213)
chain: MENDTGWSVKKCIDIFGEFLLVSIHCILYARRLYPQDLFIKARKYNTIVWQSRHPILCEYIEEVVQSCIEELQTGSVHQVALSIINKEQREEERYVFSTDSIPIIPDFLLEKQISTNEPFTDAYVEYMRASLIQLLNITNGLPLIEQECTWTLRVTLKDGFPRPKQWEEWFLPPQARETDATRQFKGITIPVRNVDIGPMMTEIWVEKYTNSD
binding [5]: binds
